These are yes or no findings as the source states them, for the method shown. Some results given as binding are weak or reduced against the parent protein; the word gives no strength. Blank lines part the entries; values can stand above or below the binder they belong to.
Experiments:
PDL1-hFc [1] = molecular target: PDL1-hFc (UniProt Q9NZQ7); experiment: ELISA, PDL1-hFc coated, antibody at 300 ng/ml
PDL1-hFc [2] = molecular target: PDL1-hFc (UniProt Q9NZQ7); experiment: ELISA titration on PDL1-hFc (FIG. 11)
PDL1-hFc [3] = molecular target: PDL1-hFc (UniProt Q9NZQ7); experiment: ELISA titration on PDL1-hFc
[4] = molecular target: human PD-L1 (coated on ELISA plate) (human) (UniProt Q9NZQ7); experiment: ELISA, PD-L1 coated 0.1 µg/well

Amino acid sequences for entries named in this document (tags omitted).
UniProt Q9NZQ7: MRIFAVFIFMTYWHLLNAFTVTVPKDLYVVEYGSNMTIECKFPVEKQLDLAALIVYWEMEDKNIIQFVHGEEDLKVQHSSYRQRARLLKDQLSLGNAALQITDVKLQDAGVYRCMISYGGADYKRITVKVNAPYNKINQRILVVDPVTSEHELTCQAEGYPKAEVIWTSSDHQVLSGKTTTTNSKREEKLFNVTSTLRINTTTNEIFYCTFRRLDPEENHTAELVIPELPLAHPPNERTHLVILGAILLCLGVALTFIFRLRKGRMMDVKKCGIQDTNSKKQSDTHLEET

binding (PDL1-hFc [1]): binds
B1: 3C3 humanized antibody HuB2Hu (antibody, V domains shown)
VH: EVQLQESGPGLVKPSQTLSLTCTVSGYSITSDYWDWIRKPPGKGLEYMGYISYTGSTYYNPSLRSRITISRDTSKNQYSLKLSSVTAADTAVYYCARRGGWLSPFVYWGQGTLVTVSS
VL: DIQMTQSPSSLSASVGDRVTITCKSRQSLLFSSNQKNSLAWYQQKPGKAPKLLIYWASTRESGVPSRFSGSGSGTDFTLTISSLQPEDFATYYCQQYYTYPFTFGQGTKLEIK

binding (PDL1-hFc [2]): binds
B2: 1G8 humanized antibody HuB2Hu2 (antibody, V domains shown)
VH: EVQLQESGPGLVKPSQTLSLTCTVSGYSITSDYWNWIRKPPGKGLEYMGYISYTGSTYYNPSLKSRITISRDTSKNQYSLKLSSVTAADTAVYYCARRGEWLSPFAYWGQGTLVTVSS
VL: DIVMTQTPLSLSVTPGQPASISCKSSQSLLYSSNQKNSLAWYLQKPGQSPQLLIYWASTRESGVPDRFSGSGSGTDFTLKISRVEAEDVGVYYCQQYYTYPFTFGQGTKLEIK

binding (PDL1-hFc [2]): binds
B3: 1G8 humanized antibody HuB2Hu (antibody, V domains shown)
VH: EVQLQESGPGLVKPSQTLSLTCTVSGYSITSDYWNWIRKPPGKGLEYMGYISYTGSTYYNPSLKSRITISRDTSKNQYSLKLSSVTAADTAVYYCARRGEWLSPFAYWGQGTLVTVSS
VL: DIQMTQSPSSLSASVGDRVTITCKSSQSLLYSSNQKNSLAWYQQKPGKAPKLLIYWASTRESGVPSRFSGSGSGTDFTLTISSLQPEDFATYYCQQYYTYPFTFGQGTKLEIK

binding (PDL1-hFc [1]): binds
B4: 3C3 humanized antibody HuB2Hu2 (antibody, V domains shown)
VH: EVQLQESGPGLVKPSQTLSLTCTVSGYSITSDYWDWIRKPPGKGLEYMGYISYTGSTYYNPSLRSRITISRDTSKNQYSLKLSSVTAADTAVYYCARRGGWLSPFVYWGQGTLVTVSS
VL: DIVMTQTPLSLSVTPGQPASISCKSRQSLLFSSNQKNSLAWYLQKPGQSPQLLIYWASTRESGVPDRFSGSGSGTDFTLKISRVEAEDVGVYYCQQYYTYPFTFGQGTKLEIK

binding (PDL1-hFc [3]): binds
B5: 1G8 humanized antibody HuHu (antibody, V domains shown)
VH: QVQLQESGPGLVKPSQTLSLTCTVSGYSITSDYWNWIRQPPGKGLEWIGYISYTGSTYYNPSLKSRVTISVDTSKNQFSLKLSSVTAADTAVYYCARRGEWLSPFAYWGQGTLVTVSS
VL: DIQMTQSPSSLSASVGDRVTITCKSSQSLLYSSNQKNSLAWYQQKPGKAPKLLIYWASTRESGVPSRFSGSGSGTDFTLTISSLQPEDFATYYCQQYYTYPFTFGQGTKLEIK

binding [4]: binds
B6: mouse hybridoma anti-human PD-L1 antibody 1G8 (antibody, V domains shown)
VH: QVQLQESGPGLAKPSQTLSLTCSVTGYSITSDYWNWIRKFPGNKLEFMGYISYTGSTYYNPSLKSRISITRDTSKNQYYLQLNSVTTEDTATYYCARRGEWLSPFAYWGQGTLVTVSA
VL: DIVMSQSPSSLGVSVGEKITMSCKSSQSLLYSSNQKNSLAWYQQKPGQSPKLLIYWASTRESGVPDRFTGSGSGTDFTLTISSVKSEDLAVYYCQQYYTYPFTFGAGTNLELK

binding [4]: binds
B7: mouse hybridoma anti-human PD-L1 antibody 3C3 (antibody, V domains shown)
VH: EVQLQESGPGLTKPSQTLSLTCSVTGYSITSDYWDWIRKFPGNKLEYMGYISYTGSTYYNPSLRSRISITRDTSKNQYYLQLSSVTSEDSATYYCARRGGWLSPFVYWGQGTLVTVSA
VL: DTVMSQSPSSLGVSVGERVTLTCKSRQSLLFSSNQKNSLAWYQQKPGQSPKLLIYWASTRESGVPDRFTGSGSGTDFTLTISSVKSEDLAVYYCQQYYTYPFTFGAGTSLELK

binding (PDL1-hFc [3]): binds
B8: 1G8 humanized antibody HuHu2 (antibody, V domains shown)
VH: QVQLQESGPGLVKPSQTLSLTCTVSGYSITSDYWNWIRQPPGKGLEWIGYISYTGSTYYNPSLKSRVTISVDTSKNQFSLKLSSVTAADTAVYYCARRGEWLSPFAYWGQGTLVTVSS
VL: DIVMTQTPLSLSVTPGQPASISCKSSQSLLYSSNQKNSLAWYLQKPGQSPQLLIYWASTRESGVPDRFSGSGSGTDFTLKISRVEAEDVGVYYCQQYYTYPFTFGQGTKLEIK
